At least one compound was matched to its structure with a doubt left. Some entries share one result that the patent states for a list of compounds.
Legend:
[1] = system: FL1^+ cells (glioma-initiating cells, gliomasphere cultures); assay: in vitro recurrence assay (treatment then recovery), viable FL1+ cells by FACS; type: cell-based, human; conditions: after 20 days treatment; 1 μM temsirolimus, 5 μM cyclopamine, 5 μM DAPT
Description: In contrast to other methods, which preferentially use cancer cell lines and stem cell marker like CD133 as a read-out of stemness, the Applicants' technology relies on primary cell cultures derived from human specimen and on a simple and unbiased detection of CICs independently of the use of any marker. Thus Applicants took advantage of such methodology to design and develop an in vitro recurrence assay to screen and validate potential therapeutic agents for eradicating cancer stem cells in glioma. […] The novelties here reside on the read-out of stemness used for testing the efficiency of any drug and on the possibility to identify specific anti-CSC agent.
Basically, any agent or inhibitor would be considered as an efficient anti-CSC agent if it fulfils the following criteria:
• 1) a viability of GICs (FL1^+ cells) decreases for more than 50% during the exposure to said agent or inhibitor during a maximum of 20 days, • 2) a recovery of GICs (FL1^+ cells) is less than 0.2 fold during the recovery phase of a maximum of 20 days, and • 3) the viability of normal brain cells is sustainable and recoverable during and after the exposure to the said agent or inhibitor.
a) Providing a cancer stem cell sample;
b) Treating the cancer stem cell sample provided under (a) with an agent; […]

FL1^+ cells = assay: effect of DCA or oxamate treatment on FL1+ cells; type: cell-based, human; conditions: increasing dose (48 hrs) and even after 10 days

| SMILES | time in which FL1^+ cells recover [1] | ratio of FL1^+ cells after exposure versus vehicle control (FL1^+ cells) |
| --- | --- | --- |
| C[C@H](NC(=O)Cc1cc(F)cc(F)c1)C(=O)N[C@H](C(=O)OC(C)(C)C)c1ccccc1 [DAPT, N—[N-(3,5-Difluorophenacetyl-L-alanyl)]-S-phenylglycine t-Butyl Ester] | ≤ 10 days |  |
| CO[C@H]1C[C@@H]2CC[C@@H](C)[C@@](O)(O2)C(=O)C(=O)N2CCCC[C@H]2C(=O)O[C@H]([C@H](C)C[C@@H]2CC[C@@H](OC(=O)C(C)(CO)CO)[C@H](OC)C2)CC(=O)[C@H](C)/C=C(\C)[C@@H](O)[C@@H](OC)C(=O)[C@H](C)C[C@H](C)/C=C/C=C/C=C/1C [temsirolimus, Temsirolimus] | ≤ 10 days |  |
| NC(=O)C(=O)O [oxamate, Oxamate] |  | doesn't significant vary |

Source: US8815844B2, “Mitochondrial activity inhibitors of cancer-initiating cells and use thereof” (Universite de Geneve, priority 2009, dated 2014)
